# Laboratory results: PubChem BioAssay AID2685 (National Center for Advancing Translational Sciences (NCATS), 2010)
# The whole screen tested about 320,000 compounds, of which about 2,100 (0.66%) were called active. The shares of active, inactive and inconclusive entries below differ from those in the screen. The call rests on the fitted dose curve; in most records, active means well fitted inhibition curve with a large enough effect in the signal ratio, with a control signal flat (not every such curve was filed as active); inconclusive means small, poorly fitted or top-dose-only effect, or effect the other way, or a change in a side signal; inactive means flat fitted curve, though single readings scatter; the % refers to the signal ratio. Potencies of inconclusive entries are doubtful fits and often do not repeat.
# Test: qHTS Assay for Lipid Storage Modulators in Drosophila S3 Cells
# Settings: BODIPY lipid droplet fluorescence, 18-24 h, cells fed with added oleic acid; lipid storage change, negative = inhibition: at 46.1 µM (top of the series) unless noted
# Method in brief: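 Drosophila S3 cells got compounds at several concentrations plus oleic acid (400 uM solution). Laser-scanning cytometry with 488 nm excitation read lipid droplets at 500-530 nm and cells at 575-640 nm. Percent activity was relative to 20 uM Triacsin C.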
# On the % scale 0 is the no-effect control and ±100 the full control effect; potency means the concentration at half of the fitted maximal effect.
Compound,"lipid storage change, negative = inhibition",Potency
COc1cccc(-c2cc(C(=O)Nc3ccccc3SC)no2)c1,inconclusive: 30.9%,
O=C(NC(=S)Nc1ccc(C(F)(F)F)cc1)c1csnn1,inconclusive: -26.3%,
Cc1ccc(-c2csc(NC(=O)/C=C/c3cccs3)n2)cc1C,inconclusive: -20.3%,
Cc1cccc(-c2n[nH]c(=S)n2/N=C/c2ccco2)c1,inconclusive: -21.6%,
O=S(=O)(c1ccccc1)N1CCC(Oc2ccc(-n3cnnn3)cc2)CC1,inconclusive: -53.5%,
O=C(CSc1nc2ccccc2o1)N/N=C/c1ccco1,,"inconclusive: 0.58 µM [activator, single point]"
Cc1c(Cl)ccc2sc(NC(=O)C3CC3)nc12,,"inconclusive: 5.8 µM [activator, full curve, poor fit]"
c1ccc(Nc2ccccn2)nc1,inconclusive: 1.64%,
CC(C)CC(=O)N1CCC(O)(CS(=O)(=O)Cc2ccccc2)CC1,inconclusive: 31.7%,
C=C1N(C)c2cc([N+](=O)[O-])c(N)cc2C1(C)C,inconclusive: 35.2%,
Cc1cccc(NC(=O)c2ccc(Cl)c(NC(=O)c3ccncc3)c2)c1C,inconclusive: 6.34%,
CC(=O)NC(=O)c1cnn(-c2ccccc2)c1N,inconclusive: -25.8%,
COc1ccc(CNC(=O)C(c2ccco2)N(C(=O)CNS(=O)(=O)c2ccccc2)c2ccccc2C)cc1 (stereo unspecified),inconclusive: 7.11%,
Cc1ccc(NC(=O)COC(=O)CN2C(=O)NC3(CCCC3)C2=O)cc1F,inconclusive: 10.4%,
Cc1ccc(S(=O)(=O)c2nc(-c3ccco3)oc2SC(C)C)cc1,inconclusive: 8.99%,
CCc1nn(CCCC(=O)NCc2ccccc2C)c(=O)c2cc3occc3n12,inactive,
COC(=O)COc1cccc(NS(=O)(=O)c2ccc(NC(C)=O)cc2)c1,,"inconclusive: 18.4 µM [cytotoxic, single point]"
CC(C)Sc1nc2c(cnn2-c2ccc(F)cc2)c(=O)[nH]1,inactive,
CCCCCN1C(=O)Cn2c(nc3ccccc3c2=O)C1C (stereo unspecified),inconclusive: 113%,
O=C(CSc1nc(=O)[nH]c2c1CCCC2)Nc1ccc(F)cc1F,,"inconclusive: 5.8 µM [falling, full curve, poor fit]"
C#CCNC(=O)C1=C[C@H](c2ccc(Br)cc2)C[C@H](OCCCCO)O1,inconclusive: 5.99%,

# Quoted from the listing.
# For Potency, Cc1c(Cl)ccc2sc(NC(=O)C3CC3)nc12 has inconclusive: 5.8 µM [activator, full curve, poor fit]
# For lipid storage change, negative = inhibition, CC(=O)NC(=O)c1cnn(-c2ccccc2)c1N has inconclusive: -25.8%

# (listing goes on)

Compound,"lipid storage change, negative = inhibition",Potency
CNC(=O)c1[nH]cnc1C(=O)N[C@@H](CC(C)C)C(=O)OCc1ccccc1,,"inconclusive: 29.1 µM [falling, single point]"
O=C(NC1CC2CCC(C1)N2Cc1ccco1)c1ccccc1 (stereo unspecified),inconclusive: -4.02%,
O=C(CSc1nc2ccc(NC(=O)C3CCCCC3)cc2s1)NCC1CCCO1 (stereo unspecified),inconclusive: 1.66%,
CC(=O)N1CCc2c(sc(NC(=O)CCS(=O)(=O)c3ccc(C)cc3)c2C(N)=O)C1,inconclusive,
CCOCCCNC(=O)c1cc(Sc2nnc(C)s2)nc2ccccc12,inconclusive: 18.5%,
Cc1onc(-c2ccccc2)c1C(=O)OCC(=O)Nc1ccc2c(c1)OCO2,inconclusive: 29.9%,
CCN(CC)CCCN1C(=O)C(O)=C(C(=O)c2sc(C)nc2C)C1c1ccc(C)o1 (stereo unspecified),inactive,
O=C(NC(CC(=O)N1CCN(c2ccccc2)CC1)c1ccccc1)c1ccccc1Cl (stereo unspecified),,"inconclusive: 5.8 µM [activator, single point]"
O=C(CCl)N(Cc1cc(=O)[nH]c2ccccc12)c1ccccc1,inconclusive: -34.3%,
CCOc1ccc(S(=O)(=O)N2CCC(C(=O)NC3CC3)CC2)cc1C,,"inconclusive: 0.326 µM [falling, single point]"
CC1(C)C(C(=O)O)N2C(=O)C(NC(=O)Cc3ccccc3)C2S1=O (stereo unspecified),inconclusive: 17.4%,
COc1ccc(OC)c(S(=O)(=O)N2CCCC(C(=O)NCc3ccco3)C2)c1 (stereo unspecified),inconclusive: 15%,
O=C(CO/N=C\c1ccccc1)Nc1ccccc1C(=O)N1CCOCC1,inconclusive: -12.3%,
CCOc1ccc(N(CC(=O)Nc2ccc(C)c(Cl)c2)S(C)(=O)=O)cc1,inconclusive: -2.36%,
CC(C)Cc1nnc(NC(=O)C2CC(=O)N(Cc3ccccc3)C2)s1 (stereo unspecified),inconclusive: 10.4%,
O=C(NCC(=O)N1CCN(c2ccccc2)CC1)c1ccco1,inactive,
O=C(O)c1ccnc(SCC(=O)c2ccccc2)c1,inconclusive: -4.25%,
CCCn1c(=N)n(CC(O)c2ccco2)c2ccccc21 (stereo unspecified),inactive,
CCOC(=O)CSc1c(-c2ccccc2)c2cc(Cl)ccc2[nH]c1=O,inconclusive: -45.8%,
COc1ccc2c(C(=O)CCl)c[nH]c2c1,,"inconclusive: 25.9 µM [falling, single point]"
